Experimental data: patent US20110190249A1, “THERAPEUTIC METHODS AND USES OF SAPOGENINS AND THEIR DERIVATIVES” (PHYTOPHARM PLC, priority 2002, published 2011)
At least one compound was matched to its structure with a doubt left.

System: muscarinic acetylcholine receptor (m)
Assay: Restoration of m acetylcholine receptor density in CHO cells transfected with a vector for the m receptor
Assay type: cell-based
Set-up: key to the marks not given beside the values
Details: 10 microM

Row | Compound | Activity (restoration of m acetylcholine receptor density)
1 | CCOC(=O)O[C@@H]1CC[C@@]2(C)[C@H](CC[C@@H]3[C@@H]2CC[C@]2(C)[C@@H]4[C@H](C[C@@H]32)O[C@]2(CC[C@H](C)CO2)[C@H]4C)C1 [episarsasapogenin cathylate] | ++
2 | CC1CCC2(OC1)OC1CC3C4CCC5CC(OC(=O)CCC(=O)O)CCC5(C)C4CCC3(C)C1C2C (centres unmarked) [episarsasapogenin succinate] | ++
